Results are given in words; binding and its absence hold for the method and conditions named. Some entries that bind do so weakly or less than the wild type.

Sequences of proteins named here, by UniProt entry; tags and fusion partners are left off.
UniProt P26527: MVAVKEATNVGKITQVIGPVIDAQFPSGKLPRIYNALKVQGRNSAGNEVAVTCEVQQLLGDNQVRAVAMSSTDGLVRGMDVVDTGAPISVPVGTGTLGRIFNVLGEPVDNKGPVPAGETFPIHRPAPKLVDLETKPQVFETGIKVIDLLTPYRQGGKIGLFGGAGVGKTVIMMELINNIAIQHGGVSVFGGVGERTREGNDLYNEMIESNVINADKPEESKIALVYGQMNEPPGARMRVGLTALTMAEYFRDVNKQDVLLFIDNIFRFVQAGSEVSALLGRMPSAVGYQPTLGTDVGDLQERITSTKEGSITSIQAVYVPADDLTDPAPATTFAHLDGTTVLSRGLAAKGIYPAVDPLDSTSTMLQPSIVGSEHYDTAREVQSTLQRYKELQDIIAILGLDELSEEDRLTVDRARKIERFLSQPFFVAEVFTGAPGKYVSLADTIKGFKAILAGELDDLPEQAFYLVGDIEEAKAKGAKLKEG
UniProt P27182: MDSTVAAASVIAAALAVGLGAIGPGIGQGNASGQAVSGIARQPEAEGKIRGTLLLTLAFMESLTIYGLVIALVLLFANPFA
UniProt P27179: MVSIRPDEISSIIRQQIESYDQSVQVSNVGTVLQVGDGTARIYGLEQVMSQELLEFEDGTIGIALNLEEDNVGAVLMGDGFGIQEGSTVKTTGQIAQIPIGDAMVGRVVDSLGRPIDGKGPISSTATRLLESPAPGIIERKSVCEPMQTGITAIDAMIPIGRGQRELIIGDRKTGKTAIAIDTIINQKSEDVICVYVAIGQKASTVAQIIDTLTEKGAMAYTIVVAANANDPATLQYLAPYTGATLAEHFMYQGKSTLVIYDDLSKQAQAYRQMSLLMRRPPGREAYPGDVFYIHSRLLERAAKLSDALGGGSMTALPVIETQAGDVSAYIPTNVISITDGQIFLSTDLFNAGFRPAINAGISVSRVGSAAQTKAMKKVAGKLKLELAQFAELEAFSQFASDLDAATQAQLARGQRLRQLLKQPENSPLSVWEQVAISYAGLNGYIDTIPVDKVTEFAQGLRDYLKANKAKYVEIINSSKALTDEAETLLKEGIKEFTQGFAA

The target of the assay is β subunit of FoF1 ATP synthase of Synechocystis sp. PCC 6803 with an N-terminal His10-tag (Synechocystis sp. PCC 6803) (UniProt P26527). Description: co-purification by Ni-affinity chromatography; thylakoid membranes solubilised with 1% LMNG; FoF1 held by the His10-tag of the β subunit, 10 mM potassium phosphate pH 8.0, 100 mM K2SO4, 0.1 mM MgCl2, 0.1 mM ADP, 0.005% LMNG, 60 to 200 mM imidazole; bands of the SDS-PAGE gel identified by peptide mass fingerprinting, N-terminal sequencing or immunoblot.

On to “c subunit of FoF1 ATP synthase of Synechocystis sp. PCC 6803 (from UniProt P27182 1-81)”, for which the binding entry was “binds”.
In the case of “α subunit of FoF1 ATP synthase of Synechocystis sp. PCC 6803 (from UniProt P27179 1-503)” it was “binds”.

Source of the values: publication PMC8390522.
